# Laboratory results: PubChem BioAssay AID685 (PCMD, 2007)
# Some of the results follow.
# Assay: S. cerevisiae growth inhibition, turbidity – wild-type and eIF2Bepsilon R284H mutant, A595, cytotoxicity control for eIF2B function restoration project, primary screen (AID 685);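 further: 0% = untreated cell controls and 100% = YPD media blanks without cells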
# Settings: 16 h, stronger effect = higher value, screened at 25 µM (by protocol)
# In short: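 Schedule: 16 h growth with compound, 30 °C. System: yeast, wild-type or eIF2Bepsilon-R284H mutant. Doses: one dose, 25 µM compound[…]. Buffer or medium: YPD. Signal: turbidity measured as absorbance at 595 nm. Read-out basis: growth inhibition (%) versus cell controls and blanks.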
row,Structure (SMILES),growth inhibition
1,N#CC1(Nc2ccccc2)CCN(CCc2ccccc2)CC1,-14.8%
2,CCC(CO)(C(=O)OC1CN2CCC1CC2)c1ccccc1 (centres undefined),15.2%
3,c1ccc(CN2CCC(Nc3ccccc3)CC2)cc1,6.06%
4,N/C(=N\O)c1c(N)no[n+]1[O-],-7.41%
